# ± gives the standard deviation of the averaged measurements. The list shows a part of the results, in another mix than the full data.
# The chains behind the UniProt entries cited, without tags or fusion partners. Where a name states a change or a piece, a line headed by the entry shows the natural chain unless it says otherwise.
# UniProt Q9P0K8: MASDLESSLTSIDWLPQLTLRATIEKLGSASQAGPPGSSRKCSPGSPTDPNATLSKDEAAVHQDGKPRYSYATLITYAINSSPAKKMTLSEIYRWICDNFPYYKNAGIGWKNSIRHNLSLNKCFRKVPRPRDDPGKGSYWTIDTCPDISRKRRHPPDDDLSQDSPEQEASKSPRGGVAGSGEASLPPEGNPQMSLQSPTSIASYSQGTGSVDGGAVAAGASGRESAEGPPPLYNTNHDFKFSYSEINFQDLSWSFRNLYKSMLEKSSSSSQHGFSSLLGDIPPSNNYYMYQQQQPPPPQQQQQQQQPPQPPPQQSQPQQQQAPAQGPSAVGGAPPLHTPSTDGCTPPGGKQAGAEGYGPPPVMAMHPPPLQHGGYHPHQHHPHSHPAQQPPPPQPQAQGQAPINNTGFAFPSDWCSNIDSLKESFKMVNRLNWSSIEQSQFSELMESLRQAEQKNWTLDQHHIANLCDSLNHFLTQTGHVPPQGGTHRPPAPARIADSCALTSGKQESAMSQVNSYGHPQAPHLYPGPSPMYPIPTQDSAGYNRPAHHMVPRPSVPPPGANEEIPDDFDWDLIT
# UniProt Q9NZC9: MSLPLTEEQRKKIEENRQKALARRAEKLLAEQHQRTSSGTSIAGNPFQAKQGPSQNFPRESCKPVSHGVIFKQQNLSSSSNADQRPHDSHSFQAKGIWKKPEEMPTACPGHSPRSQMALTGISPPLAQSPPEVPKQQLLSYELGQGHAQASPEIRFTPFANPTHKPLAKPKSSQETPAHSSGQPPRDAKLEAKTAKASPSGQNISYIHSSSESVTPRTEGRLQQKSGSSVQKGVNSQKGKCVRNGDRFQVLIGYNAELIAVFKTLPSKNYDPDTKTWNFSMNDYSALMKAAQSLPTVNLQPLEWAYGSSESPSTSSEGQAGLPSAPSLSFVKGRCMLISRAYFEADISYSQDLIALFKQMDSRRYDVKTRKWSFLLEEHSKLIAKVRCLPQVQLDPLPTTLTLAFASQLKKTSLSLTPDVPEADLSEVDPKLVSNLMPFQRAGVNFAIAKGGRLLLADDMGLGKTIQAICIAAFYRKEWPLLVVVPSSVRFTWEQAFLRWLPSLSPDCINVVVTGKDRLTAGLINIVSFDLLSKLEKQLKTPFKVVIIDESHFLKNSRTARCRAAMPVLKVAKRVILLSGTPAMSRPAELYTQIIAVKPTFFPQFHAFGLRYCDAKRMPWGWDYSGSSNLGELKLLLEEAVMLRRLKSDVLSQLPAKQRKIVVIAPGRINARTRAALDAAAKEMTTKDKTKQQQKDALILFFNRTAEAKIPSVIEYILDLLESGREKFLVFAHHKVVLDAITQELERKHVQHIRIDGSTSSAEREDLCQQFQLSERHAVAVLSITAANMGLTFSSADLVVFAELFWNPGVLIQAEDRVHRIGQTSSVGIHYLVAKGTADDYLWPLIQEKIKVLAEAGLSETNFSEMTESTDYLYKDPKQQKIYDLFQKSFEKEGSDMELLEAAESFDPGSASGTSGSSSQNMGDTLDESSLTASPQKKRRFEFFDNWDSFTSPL
# UniProt Q9P0P0: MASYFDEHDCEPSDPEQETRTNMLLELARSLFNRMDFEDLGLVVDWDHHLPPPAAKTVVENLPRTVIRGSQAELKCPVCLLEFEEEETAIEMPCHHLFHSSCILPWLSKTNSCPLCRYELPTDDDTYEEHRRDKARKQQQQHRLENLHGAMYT
# UniProt Q9NWV4: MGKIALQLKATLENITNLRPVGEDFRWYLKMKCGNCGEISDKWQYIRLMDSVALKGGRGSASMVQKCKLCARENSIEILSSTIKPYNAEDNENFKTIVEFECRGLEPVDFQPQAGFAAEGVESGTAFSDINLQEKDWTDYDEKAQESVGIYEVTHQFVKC
# UniProt Q9P086: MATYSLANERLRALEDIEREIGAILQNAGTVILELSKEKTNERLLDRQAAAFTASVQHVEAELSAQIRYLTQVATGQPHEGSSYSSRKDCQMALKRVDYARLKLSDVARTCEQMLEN
# UniProt Q9NSA3: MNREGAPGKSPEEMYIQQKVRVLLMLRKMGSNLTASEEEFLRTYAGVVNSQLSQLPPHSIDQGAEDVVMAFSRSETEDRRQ
# UniProt Q9NSC5: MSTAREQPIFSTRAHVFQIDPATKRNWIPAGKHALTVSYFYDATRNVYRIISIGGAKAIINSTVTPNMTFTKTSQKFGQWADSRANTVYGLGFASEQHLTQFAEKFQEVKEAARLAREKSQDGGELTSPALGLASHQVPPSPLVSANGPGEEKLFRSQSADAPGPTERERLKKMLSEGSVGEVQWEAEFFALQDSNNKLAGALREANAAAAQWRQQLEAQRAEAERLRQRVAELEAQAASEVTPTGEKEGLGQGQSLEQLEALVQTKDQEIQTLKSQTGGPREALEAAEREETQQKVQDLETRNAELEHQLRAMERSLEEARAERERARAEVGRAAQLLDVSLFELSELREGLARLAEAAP
# UniProt Q9NQT8: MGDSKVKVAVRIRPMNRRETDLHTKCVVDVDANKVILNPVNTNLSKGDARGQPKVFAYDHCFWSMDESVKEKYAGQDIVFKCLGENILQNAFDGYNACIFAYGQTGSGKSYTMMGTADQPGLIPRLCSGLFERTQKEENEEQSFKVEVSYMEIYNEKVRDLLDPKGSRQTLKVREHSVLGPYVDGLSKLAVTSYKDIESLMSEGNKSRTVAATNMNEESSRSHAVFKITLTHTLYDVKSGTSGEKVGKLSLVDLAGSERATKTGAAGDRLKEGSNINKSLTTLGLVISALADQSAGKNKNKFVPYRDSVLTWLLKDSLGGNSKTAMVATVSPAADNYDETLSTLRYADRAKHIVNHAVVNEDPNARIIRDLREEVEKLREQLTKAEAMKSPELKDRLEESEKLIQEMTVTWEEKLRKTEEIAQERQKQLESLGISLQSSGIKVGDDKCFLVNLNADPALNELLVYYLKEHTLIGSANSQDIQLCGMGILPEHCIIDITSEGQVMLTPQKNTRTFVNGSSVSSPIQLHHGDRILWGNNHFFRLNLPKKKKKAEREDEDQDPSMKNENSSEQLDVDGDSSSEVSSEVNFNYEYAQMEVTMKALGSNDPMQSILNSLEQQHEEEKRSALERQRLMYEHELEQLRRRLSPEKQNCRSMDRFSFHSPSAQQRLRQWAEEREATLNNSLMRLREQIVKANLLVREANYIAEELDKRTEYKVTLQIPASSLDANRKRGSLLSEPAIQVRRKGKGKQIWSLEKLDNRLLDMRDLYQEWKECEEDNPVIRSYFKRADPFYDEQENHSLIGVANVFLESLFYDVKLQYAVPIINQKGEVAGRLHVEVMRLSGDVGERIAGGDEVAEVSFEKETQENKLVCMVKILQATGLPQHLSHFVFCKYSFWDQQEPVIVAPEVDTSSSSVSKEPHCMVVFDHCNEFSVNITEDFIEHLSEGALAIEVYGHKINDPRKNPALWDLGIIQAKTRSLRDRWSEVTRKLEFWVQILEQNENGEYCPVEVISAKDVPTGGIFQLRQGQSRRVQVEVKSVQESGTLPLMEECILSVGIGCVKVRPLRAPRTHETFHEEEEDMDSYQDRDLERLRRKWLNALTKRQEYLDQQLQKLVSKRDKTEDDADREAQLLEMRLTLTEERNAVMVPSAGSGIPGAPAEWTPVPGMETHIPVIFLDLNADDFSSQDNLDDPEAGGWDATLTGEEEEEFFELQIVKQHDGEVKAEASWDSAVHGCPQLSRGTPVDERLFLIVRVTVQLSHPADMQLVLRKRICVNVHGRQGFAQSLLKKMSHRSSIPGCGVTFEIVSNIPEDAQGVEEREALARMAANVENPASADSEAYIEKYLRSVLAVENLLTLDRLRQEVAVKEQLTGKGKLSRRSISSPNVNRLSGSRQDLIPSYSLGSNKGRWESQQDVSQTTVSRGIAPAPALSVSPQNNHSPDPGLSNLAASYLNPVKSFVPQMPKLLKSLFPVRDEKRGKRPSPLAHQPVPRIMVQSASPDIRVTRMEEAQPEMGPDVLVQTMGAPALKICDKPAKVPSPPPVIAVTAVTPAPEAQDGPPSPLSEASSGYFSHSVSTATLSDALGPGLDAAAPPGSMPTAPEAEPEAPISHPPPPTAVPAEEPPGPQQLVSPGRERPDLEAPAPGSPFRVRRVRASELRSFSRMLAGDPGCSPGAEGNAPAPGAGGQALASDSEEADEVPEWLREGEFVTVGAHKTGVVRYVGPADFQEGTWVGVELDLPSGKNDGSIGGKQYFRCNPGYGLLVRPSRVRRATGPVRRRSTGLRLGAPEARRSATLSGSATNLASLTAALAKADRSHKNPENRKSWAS
# UniProt Q9NVV4: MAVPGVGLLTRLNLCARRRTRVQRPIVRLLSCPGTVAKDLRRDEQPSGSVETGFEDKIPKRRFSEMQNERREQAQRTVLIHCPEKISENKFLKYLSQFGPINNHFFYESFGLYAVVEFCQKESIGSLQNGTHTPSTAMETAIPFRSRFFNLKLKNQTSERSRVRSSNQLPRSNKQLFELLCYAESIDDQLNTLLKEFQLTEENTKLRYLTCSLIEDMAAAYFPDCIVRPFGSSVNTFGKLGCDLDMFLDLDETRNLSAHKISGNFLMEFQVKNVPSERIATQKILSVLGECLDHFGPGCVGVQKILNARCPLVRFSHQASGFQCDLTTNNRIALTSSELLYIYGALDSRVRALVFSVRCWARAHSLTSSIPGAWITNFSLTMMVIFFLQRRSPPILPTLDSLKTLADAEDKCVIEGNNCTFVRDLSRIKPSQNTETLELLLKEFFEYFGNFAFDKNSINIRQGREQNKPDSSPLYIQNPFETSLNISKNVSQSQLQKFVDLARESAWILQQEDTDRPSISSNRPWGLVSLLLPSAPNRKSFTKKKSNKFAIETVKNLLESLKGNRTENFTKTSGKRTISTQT
# UniProt Q9NVE7: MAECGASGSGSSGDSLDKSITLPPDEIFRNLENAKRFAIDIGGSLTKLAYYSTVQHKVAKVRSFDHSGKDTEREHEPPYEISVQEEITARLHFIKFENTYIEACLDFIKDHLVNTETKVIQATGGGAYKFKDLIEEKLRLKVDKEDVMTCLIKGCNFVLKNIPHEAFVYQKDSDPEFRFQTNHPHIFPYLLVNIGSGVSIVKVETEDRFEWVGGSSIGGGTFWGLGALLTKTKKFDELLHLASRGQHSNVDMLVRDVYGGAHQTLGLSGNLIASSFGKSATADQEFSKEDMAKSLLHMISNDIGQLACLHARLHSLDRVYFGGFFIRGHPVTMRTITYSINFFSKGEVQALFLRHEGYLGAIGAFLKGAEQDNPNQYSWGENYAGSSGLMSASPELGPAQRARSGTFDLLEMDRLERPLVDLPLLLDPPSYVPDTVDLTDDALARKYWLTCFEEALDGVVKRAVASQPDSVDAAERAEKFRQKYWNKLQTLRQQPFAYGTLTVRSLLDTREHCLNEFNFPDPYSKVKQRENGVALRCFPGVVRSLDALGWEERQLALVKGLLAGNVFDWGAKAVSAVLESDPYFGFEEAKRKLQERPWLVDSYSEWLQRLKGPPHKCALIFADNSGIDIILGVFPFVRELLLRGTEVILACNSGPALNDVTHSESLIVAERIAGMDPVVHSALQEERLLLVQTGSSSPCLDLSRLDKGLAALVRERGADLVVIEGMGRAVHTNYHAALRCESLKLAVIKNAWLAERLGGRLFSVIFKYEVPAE
# UniProt Q9P0I2: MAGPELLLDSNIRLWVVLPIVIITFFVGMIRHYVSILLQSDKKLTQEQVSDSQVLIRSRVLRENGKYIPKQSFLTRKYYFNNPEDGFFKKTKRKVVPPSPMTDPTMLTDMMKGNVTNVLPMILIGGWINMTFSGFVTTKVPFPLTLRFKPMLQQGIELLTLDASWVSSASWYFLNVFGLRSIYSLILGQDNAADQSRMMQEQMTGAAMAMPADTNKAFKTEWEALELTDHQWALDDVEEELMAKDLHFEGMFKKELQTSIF
# UniProt Q9P0R6: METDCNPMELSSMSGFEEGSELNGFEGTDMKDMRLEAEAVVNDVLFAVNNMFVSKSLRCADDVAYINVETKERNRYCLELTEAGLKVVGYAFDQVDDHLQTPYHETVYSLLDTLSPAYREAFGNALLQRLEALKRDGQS
# UniProt Q9NWR8: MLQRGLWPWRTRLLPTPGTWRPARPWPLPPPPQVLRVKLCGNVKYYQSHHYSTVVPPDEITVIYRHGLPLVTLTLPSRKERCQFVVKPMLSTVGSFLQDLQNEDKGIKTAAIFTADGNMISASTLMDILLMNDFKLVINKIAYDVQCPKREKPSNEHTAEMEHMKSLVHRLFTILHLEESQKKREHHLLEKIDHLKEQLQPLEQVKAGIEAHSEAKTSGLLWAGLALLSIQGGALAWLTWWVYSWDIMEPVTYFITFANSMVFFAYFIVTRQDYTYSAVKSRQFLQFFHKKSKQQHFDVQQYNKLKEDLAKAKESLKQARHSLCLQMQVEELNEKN
# UniProt Q9NR28: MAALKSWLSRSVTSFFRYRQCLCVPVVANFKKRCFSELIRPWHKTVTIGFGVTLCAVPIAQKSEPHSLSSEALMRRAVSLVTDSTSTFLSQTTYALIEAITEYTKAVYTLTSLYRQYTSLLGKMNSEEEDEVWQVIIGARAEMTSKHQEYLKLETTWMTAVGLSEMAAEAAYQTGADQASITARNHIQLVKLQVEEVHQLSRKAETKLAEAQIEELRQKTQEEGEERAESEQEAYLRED
# Compound: Nc1ncnc2c1ncn2[C@@H]1O[C@H](COP(=O)(O)OP(=O)(O)OP(=O)(O)O)[C@@H](O)[C@H]1O [adenosine triphosphate]
# Experiment: NP40-soluble protein abundance relative to vehicle (solubility fold change) (ratio); higher = more soluble protein in presence of ATP
# Details: concentration: 1mM
# Outline: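 Jurkat crude lysate prepared with a Dounce homogeniser was treated at eight concentrations spanning 0.1 to 10 mM, 10 min at room temperature then 3 min at 37 °C. Solubilisation with 0.8% NP40 and benzonase and ultracentrifugation preceded TMT labelling of the supernatant for LC-MS/MS. Fold change against the detergent-processed vehicle was determined per replicate from vsn-normalised intensities, across three independent experiments.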
row,Target,NP40-soluble protein abundance
1,IMPAD1 (UniProt Q9NX62),0.968 ± 0.024
2,UniProt Q9P0K8 and related entries,0.881 ± 0.04
3,SMARCAL1 (UniProt Q9NZC9),1.02 ± 0.056
4,PAK1IP1 (UniProt Q9NWT1),1.23 ± 0.18
5,RNF181 (UniProt Q9P0P0),0.945 ± 0.078
6,UniProt Q9NR19 and related entries,0.931 ± 0.01
7,UniProt Q9NWV4,0.955 ± 0.011
8,NANS (UniProt Q9NR45),1.02 ± 0.02
9,KIF15 (UniProt Q9NS87),0.9859 ± 0.0037
10,MED11 (UniProt Q9P086),0.976 ± 0.25
11,CTNNBIP1 (UniProt Q9NSA3),0.881 ± 0.093
12,TBC1D22B (UniProt Q9NU19),1.01 ± 0.018
13,UniProt Q9NUQ3,0.964 ± 0.037
14,HOMER3 (UniProt Q9NSC5),1.05 ± 0.054
15,EIF2B3 (UniProt Q9NR50),0.996 ± 0.08
16,NSMCE4A (UniProt Q9NXX6),1.03 ± 0.054
17,RBM28 (UniProt Q9NW13),1.07 ± 0.047
18,KIF13B (UniProt Q9NQT8),1.03 ± 0.024

row,Target,NP40-soluble protein abundance
1,PFDN4 (UniProt Q9NQP4),0.864 ± 0.1
2,UniProt Q9NUB1 and related entries,1.01 ± 0.07
3,MTPAP (UniProt Q9NVV4),1.15 ± 0.014
4,TM7SF3 (UniProt Q9NS93),0.96 ± 0.016
5,PANK4 (UniProt Q9NVE7),1.02 ± 0.12
6,PAG1 (UniProt Q9NWQ8),0.986 ± 0.17
7,UniProt Q9NUP1,0.933 ± 0.12
8,STARD7 (UniProt Q9NQZ5),0.952 ± 0.02
9,UniProt Q9NVM4 and related entries,1.02 ± 0.058
10,UniProt Q9NW08 and related entries,1.05 ± 0.059
11,CHST12 (UniProt Q9NRB3),0.903 ± 0.03
12,UniProt Q9P0I2,1.03 ± 0.044
13,UniProt Q9NZC3 and related entries,0.893 ± 0.035
14,GSKIP (UniProt Q9P0R6),0.908 ± 0.12
15,UniProt Q9NWR8,1.08 ± 0.017
16,UniProt Q9NR28 and related entries,0.871 ± 0.049
17,TMOD3 (UniProt Q9NYL9),0.981 ± 0.073
18,UniProt Q9NW81 and related entries,1.01 ± 0.067

# Same assay, conditions: concentration: 2mM
row,Target,NP40-soluble protein abundance
1,IMPAD1 (UniProt Q9NX62),0.949 ± 0.018
2,UniProt Q9P0K8 and related entries,0.899 ± 0.097
3,SMARCAL1 (UniProt Q9NZC9),1.06 ± 0.044
4,PAK1IP1 (UniProt Q9NWT1),1.17 ± 0.072
5,RNF181 (UniProt Q9P0P0),0.969 ± 0.067
6,UniProt Q9NR19 and related entries,0.941 ± 0.065
7,UniProt Q9NWV4,0.967 ± 0.025
8,NANS (UniProt Q9NR45),0.988 ± 0.05
9,KIF15 (UniProt Q9NS87),0.989 ± 0.032
10,MED11 (UniProt Q9P086),1.02 ± 0.23
11,CTNNBIP1 (UniProt Q9NSA3),0.932 ± 0.018
12,TBC1D22B (UniProt Q9NU19),1.04 ± 0.032
13,UniProt Q9NUQ3,0.9579 ± 0.0068
14,HOMER3 (UniProt Q9NSC5),1.04 ± 0.032
15,EIF2B3 (UniProt Q9NR50),0.97 ± 0.051
16,NSMCE4A (UniProt Q9NXX6),1.04 ± 0.054
17,RBM28 (UniProt Q9NW13),1.12 ± 0.024
18,KIF13B (UniProt Q9NQT8),1.032 ± 0.0084

row,Target,NP40-soluble protein abundance
1,PFDN4 (UniProt Q9NQP4),0.936 ± 0.16
2,UniProt Q9NUB1 and related entries,1.01 ± 0.071
3,MTPAP (UniProt Q9NVV4),1.28 ± 0.048
4,TM7SF3 (UniProt Q9NS93),0.953 ± 0.023
5,PANK4 (UniProt Q9NVE7),0.991 ± 0.064
6,PAG1 (UniProt Q9NWQ8),0.939 ± 0.12
7,UniProt Q9NUP1,0.89 ± 0.062
8,STARD7 (UniProt Q9NQZ5),1.01 ± 0.073
9,UniProt Q9NVM4 and related entries,1.03 ± 0.037
10,UniProt Q9NW08 and related entries,1.03 ± 0.051
11,CHST12 (UniProt Q9NRB3),0.984 ± 0.03
12,UniProt Q9P0I2,1.05 ± 0.041
13,UniProt Q9NZC3 and related entries,0.942 ± 0.017
14,GSKIP (UniProt Q9P0R6),0.961 ± 0.096
15,UniProt Q9NWR8,1.05 ± 0.016
16,UniProt Q9NR28 and related entries,0.887 ± 0.036
17,TMOD3 (UniProt Q9NYL9),1.01 ± 0.019
18,UniProt Q9NW81 and related entries,1.01 ± 0.032

# Same assay, conditions: concentration: 4mM
row,Target,NP40-soluble protein abundance
1,IMPAD1 (UniProt Q9NX62),0.927 ± 0.01
2,UniProt Q9P0K8 and related entries,0.913 ± 0.051
3,SMARCAL1 (UniProt Q9NZC9),1.1 ± 0.077
4,PAK1IP1 (UniProt Q9NWT1),1.2 ± 0.058
5,RNF181 (UniProt Q9P0P0),0.972 ± 0.051
6,UniProt Q9NR19 and related entries,0.949 ± 0.06
7,UniProt Q9NWV4,0.929 ± 0.02
8,NANS (UniProt Q9NR45),0.958 ± 0.027
9,KIF15 (UniProt Q9NS87),0.975 ± 0.025
10,MED11 (UniProt Q9P086),1.14 ± 0.21
11,CTNNBIP1 (UniProt Q9NSA3),0.846 ± 0.089
12,TBC1D22B (UniProt Q9NU19),1.01 ± 0.043
13,UniProt Q9NUQ3,0.923 ± 0.033
14,HOMER3 (UniProt Q9NSC5),1.05 ± 0.045
15,EIF2B3 (UniProt Q9NR50),0.977 ± 0.046
16,NSMCE4A (UniProt Q9NXX6),1.02 ± 0.015
17,RBM28 (UniProt Q9NW13),1.15 ± 0.043
18,KIF13B (UniProt Q9NQT8),1.02 ± 0.024

row,Target,NP40-soluble protein abundance
1,PFDN4 (UniProt Q9NQP4),0.908 ± 0.088
2,UniProt Q9NUB1 and related entries,0.98 ± 0.073
3,MTPAP (UniProt Q9NVV4),1.37 ± 0.029
4,TM7SF3 (UniProt Q9NS93),0.93 ± 0.053
5,PANK4 (UniProt Q9NVE7),1.02 ± 0.1
6,PAG1 (UniProt Q9NWQ8),0.961 ± 0.11
7,UniProt Q9NUP1,0.906 ± 0.077
8,STARD7 (UniProt Q9NQZ5),0.913 ± 0.023
9,UniProt Q9NVM4 and related entries,1.05 ± 0.043
10,UniProt Q9NW08 and related entries,1.04 ± 0.037
11,CHST12 (UniProt Q9NRB3),1.01 ± 0.049
12,UniProt Q9P0I2,1.04 ± 0.035
13,UniProt Q9NZC3 and related entries,0.953 ± 0.029
14,GSKIP (UniProt Q9P0R6),0.915 ± 0.063
15,UniProt Q9NWR8,1.04 ± 0.041
16,UniProt Q9NR28 and related entries,0.877 ± 0.067
17,TMOD3 (UniProt Q9NYL9),1 ± 0.038
18,UniProt Q9NW81 and related entries,0.981 ± 0.024

# From the supplement of paper PMC6411743
